{"sequences": {"note": "Protein sequences, listed by entry. Tags and fused reporters are not part of them. Lines headed by an entry give the natural chain unless they say otherwise; changes in a name come on top.", "UniProt P29590": "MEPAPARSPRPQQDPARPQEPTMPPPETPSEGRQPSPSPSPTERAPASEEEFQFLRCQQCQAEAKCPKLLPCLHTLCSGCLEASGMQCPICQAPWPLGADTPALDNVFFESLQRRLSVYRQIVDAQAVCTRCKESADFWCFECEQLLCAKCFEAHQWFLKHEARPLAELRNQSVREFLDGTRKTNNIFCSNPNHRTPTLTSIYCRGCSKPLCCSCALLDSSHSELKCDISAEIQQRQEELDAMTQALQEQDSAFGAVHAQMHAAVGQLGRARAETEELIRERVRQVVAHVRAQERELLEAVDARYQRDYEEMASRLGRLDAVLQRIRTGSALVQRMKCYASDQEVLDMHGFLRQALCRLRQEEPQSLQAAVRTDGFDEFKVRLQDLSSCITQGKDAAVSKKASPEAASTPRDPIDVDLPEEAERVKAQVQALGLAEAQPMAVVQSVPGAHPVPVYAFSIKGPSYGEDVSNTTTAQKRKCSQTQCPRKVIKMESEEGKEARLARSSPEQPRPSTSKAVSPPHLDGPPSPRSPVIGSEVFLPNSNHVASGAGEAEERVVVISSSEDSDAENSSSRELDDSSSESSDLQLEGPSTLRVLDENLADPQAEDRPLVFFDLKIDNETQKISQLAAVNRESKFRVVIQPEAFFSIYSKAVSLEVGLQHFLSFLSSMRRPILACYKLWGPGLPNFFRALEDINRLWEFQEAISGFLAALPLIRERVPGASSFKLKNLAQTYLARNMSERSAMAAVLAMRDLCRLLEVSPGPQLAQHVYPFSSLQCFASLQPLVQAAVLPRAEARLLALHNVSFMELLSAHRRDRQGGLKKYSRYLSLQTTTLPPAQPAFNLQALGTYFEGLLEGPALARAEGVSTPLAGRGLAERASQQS", "UniProt P48426": "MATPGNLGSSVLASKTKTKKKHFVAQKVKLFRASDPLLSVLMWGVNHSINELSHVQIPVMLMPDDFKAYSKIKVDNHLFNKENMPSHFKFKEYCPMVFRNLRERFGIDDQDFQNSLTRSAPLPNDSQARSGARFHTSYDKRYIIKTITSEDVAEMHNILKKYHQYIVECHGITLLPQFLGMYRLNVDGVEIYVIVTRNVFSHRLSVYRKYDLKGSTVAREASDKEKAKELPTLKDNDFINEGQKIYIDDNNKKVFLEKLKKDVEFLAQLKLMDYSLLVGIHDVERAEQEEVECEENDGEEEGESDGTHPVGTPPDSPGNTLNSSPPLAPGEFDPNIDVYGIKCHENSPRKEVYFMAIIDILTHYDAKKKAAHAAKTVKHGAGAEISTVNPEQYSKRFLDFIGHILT", "UniProt Q9BY77": "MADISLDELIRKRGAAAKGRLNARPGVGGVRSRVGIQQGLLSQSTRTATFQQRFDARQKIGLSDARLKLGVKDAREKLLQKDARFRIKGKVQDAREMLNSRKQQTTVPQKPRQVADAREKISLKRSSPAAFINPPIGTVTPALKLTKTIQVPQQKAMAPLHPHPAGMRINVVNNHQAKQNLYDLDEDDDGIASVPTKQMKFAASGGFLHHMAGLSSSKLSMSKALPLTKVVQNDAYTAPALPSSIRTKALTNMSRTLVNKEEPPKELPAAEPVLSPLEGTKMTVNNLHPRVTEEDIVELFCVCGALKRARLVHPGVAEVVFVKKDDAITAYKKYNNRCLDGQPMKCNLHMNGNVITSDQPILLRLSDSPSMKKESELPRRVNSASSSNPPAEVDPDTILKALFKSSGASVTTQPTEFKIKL", "UniProt Q9UBF8": "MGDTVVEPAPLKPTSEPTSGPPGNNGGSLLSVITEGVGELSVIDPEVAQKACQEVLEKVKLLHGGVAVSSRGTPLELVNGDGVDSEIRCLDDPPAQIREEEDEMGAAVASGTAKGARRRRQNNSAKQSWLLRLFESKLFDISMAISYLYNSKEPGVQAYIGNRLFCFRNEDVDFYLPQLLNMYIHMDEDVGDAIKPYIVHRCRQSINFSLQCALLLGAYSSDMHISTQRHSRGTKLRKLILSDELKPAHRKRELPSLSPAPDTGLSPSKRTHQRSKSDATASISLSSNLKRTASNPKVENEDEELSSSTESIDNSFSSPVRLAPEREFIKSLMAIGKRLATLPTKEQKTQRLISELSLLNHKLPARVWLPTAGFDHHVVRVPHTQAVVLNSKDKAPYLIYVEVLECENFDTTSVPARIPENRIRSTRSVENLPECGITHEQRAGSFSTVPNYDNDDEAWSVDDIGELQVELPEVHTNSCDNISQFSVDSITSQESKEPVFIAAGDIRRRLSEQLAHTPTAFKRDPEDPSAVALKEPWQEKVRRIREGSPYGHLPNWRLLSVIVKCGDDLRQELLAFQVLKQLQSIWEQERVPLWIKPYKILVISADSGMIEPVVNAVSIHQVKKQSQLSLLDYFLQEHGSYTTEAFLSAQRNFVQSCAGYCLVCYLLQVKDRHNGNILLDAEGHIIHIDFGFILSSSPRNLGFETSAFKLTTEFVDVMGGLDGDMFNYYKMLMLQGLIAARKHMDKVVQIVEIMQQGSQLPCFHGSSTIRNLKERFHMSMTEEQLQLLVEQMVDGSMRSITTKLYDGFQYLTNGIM", "UniProt Q15054": "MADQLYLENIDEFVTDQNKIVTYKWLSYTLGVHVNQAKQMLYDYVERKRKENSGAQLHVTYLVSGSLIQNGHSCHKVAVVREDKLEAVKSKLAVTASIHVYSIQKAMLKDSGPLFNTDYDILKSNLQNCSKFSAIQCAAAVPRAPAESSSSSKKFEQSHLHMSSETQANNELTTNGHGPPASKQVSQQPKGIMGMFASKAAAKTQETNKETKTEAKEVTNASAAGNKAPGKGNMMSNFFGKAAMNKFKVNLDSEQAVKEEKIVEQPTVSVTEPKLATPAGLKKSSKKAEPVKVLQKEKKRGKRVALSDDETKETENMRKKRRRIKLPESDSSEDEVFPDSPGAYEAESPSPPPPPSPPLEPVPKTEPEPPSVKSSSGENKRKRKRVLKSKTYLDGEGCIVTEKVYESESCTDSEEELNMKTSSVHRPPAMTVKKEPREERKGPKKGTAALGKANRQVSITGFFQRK", "UniProt Q02809": "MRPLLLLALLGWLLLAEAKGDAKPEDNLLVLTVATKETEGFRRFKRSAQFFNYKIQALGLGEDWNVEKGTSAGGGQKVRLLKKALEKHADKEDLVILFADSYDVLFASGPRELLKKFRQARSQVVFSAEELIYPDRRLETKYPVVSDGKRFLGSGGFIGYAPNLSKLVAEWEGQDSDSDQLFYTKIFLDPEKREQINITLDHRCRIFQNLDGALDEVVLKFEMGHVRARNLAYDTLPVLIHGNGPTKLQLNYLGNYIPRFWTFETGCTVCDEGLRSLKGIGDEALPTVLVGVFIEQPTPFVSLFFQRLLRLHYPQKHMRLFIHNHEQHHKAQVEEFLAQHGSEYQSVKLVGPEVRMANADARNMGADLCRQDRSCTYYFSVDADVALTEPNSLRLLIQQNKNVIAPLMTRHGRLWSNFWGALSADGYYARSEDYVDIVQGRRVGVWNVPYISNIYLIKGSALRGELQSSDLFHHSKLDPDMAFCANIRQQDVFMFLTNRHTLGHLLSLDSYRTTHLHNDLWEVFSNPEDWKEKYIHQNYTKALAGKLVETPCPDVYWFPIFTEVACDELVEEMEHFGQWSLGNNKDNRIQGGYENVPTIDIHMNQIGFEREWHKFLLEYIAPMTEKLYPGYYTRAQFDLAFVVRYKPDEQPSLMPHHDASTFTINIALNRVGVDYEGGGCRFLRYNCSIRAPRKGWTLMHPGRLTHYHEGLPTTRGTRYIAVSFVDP", "UniProt Q9NRD5, whole entry": "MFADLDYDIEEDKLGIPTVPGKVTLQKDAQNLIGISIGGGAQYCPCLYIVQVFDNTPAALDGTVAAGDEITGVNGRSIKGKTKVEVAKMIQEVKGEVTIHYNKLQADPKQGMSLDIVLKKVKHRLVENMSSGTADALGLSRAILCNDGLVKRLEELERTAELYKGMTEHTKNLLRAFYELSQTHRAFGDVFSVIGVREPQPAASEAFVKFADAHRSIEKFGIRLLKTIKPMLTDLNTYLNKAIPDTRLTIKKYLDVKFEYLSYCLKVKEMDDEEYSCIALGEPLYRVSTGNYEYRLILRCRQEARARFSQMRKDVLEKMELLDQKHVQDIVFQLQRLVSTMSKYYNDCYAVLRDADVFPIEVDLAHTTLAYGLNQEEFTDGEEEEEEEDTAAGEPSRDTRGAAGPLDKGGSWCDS", "UniProt Q9UMR5": "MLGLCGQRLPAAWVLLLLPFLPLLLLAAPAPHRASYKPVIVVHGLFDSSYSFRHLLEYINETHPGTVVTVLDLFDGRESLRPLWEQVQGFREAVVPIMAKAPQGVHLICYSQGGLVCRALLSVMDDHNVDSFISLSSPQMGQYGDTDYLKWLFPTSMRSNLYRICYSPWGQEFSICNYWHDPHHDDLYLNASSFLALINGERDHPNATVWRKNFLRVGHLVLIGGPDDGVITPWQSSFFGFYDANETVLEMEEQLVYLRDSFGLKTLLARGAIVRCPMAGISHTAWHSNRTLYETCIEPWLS", "UniProt P46019": "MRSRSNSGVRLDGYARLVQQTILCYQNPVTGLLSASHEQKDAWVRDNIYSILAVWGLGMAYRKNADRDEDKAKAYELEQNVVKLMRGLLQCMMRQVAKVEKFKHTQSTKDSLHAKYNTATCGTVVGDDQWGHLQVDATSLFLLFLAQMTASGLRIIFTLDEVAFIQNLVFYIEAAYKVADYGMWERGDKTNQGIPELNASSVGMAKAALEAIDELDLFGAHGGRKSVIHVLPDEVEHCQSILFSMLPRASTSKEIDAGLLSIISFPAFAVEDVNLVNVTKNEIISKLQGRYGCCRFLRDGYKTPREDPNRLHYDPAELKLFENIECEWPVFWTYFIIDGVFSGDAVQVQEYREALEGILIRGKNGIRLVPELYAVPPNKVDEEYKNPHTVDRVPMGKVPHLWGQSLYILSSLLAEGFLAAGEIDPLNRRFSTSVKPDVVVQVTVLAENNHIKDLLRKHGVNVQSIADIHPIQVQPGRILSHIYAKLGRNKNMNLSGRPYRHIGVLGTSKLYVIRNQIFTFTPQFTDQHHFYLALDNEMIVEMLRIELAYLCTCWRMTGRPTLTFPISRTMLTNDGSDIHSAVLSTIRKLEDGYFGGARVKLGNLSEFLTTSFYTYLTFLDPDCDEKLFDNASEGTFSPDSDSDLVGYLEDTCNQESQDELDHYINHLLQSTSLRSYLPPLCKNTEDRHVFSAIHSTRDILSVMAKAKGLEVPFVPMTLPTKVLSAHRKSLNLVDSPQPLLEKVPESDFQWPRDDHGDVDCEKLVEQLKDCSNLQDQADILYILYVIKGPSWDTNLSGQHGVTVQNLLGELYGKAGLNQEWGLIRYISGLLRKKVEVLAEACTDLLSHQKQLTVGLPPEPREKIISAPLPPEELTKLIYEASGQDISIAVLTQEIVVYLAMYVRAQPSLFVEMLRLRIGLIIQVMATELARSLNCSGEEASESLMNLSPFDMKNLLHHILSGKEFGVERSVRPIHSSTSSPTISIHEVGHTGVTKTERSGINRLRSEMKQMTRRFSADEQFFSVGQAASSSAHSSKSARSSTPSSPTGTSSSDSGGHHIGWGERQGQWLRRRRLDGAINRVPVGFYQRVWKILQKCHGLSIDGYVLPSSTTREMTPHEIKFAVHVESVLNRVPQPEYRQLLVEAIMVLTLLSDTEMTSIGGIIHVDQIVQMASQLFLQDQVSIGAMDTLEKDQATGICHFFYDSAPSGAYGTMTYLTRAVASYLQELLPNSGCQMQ", "UniProt Q9NP80": "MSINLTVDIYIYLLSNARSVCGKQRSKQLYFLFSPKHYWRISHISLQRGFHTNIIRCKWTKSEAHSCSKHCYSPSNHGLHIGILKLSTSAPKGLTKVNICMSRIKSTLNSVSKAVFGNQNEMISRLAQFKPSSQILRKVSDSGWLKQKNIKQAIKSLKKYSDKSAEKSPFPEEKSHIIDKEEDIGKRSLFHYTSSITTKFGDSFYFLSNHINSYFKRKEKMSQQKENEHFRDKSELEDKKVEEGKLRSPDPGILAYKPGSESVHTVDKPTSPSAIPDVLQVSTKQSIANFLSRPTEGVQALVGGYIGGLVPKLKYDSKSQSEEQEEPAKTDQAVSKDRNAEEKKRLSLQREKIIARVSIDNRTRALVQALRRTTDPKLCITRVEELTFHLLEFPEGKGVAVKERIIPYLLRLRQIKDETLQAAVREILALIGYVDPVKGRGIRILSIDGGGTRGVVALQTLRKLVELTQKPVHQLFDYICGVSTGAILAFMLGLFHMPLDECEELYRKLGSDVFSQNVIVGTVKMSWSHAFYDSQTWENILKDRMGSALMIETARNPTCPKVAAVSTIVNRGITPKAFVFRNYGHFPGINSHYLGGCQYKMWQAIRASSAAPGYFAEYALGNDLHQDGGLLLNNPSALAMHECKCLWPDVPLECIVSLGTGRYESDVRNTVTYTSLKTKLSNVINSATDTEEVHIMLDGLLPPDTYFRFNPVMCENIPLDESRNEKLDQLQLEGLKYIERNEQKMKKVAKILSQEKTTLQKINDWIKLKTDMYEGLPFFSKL", "UniProt Q9NRX4": "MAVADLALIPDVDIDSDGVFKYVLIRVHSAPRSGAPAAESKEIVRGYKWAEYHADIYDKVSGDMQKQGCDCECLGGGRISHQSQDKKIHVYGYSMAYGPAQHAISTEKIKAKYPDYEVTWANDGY"}, "source": "the supplement of paper PMC7666118", "note": "Some of the results follow.", "data": [{"compound": "COc1ccc(Cn2ccc3ccc(C(=O)NO)cc32)cc1", "assay": "dose-dependent thermal stabilisation call (2D-TPP, DLPTP, 10% FDR) (binary (1 = stabilised)); higher = stabilised by the compound", "settings": "system: HL-60 intact cells; concentration range 0.04-10 µM", "values": [{"target": "PJA2 (UniProt O43164)", "dose-dependent thermal stabilisation call": "inactive: 0"}, {"target": "PRG2 (UniProt P13727)", "dose-dependent thermal stabilisation call": "inactive: 0"}, {"target": "PML (UniProt P29590)", "dose-dependent thermal stabilisation call": "inactive: 0"}, {"target": "PIP4K2A (UniProt P48426)", "dose-dependent thermal stabilisation call": "inactive: 0"}, {"target": "POLR2C (UniProt P19387)", "dose-dependent thermal stabilisation call": "inactive: 0"}, {"target": "PODXL2 (UniProt Q9NZ53)", "dose-dependent thermal stabilisation call": "inactive: 0"}, {"target": "PHF3 (UniProt Q92576)", "dose-dependent thermal stabilisation call": "inactive: 0"}, {"target": "POLDIP3 (UniProt Q9BY77)", "dose-dependent thermal stabilisation call": "inactive: 0"}, {"target": "PI4KB (UniProt Q9UBF8)", "dose-dependent thermal stabilisation call": "inactive: 0"}, {"target": "POLD3 (UniProt Q15054)", "dose-dependent thermal stabilisation call": "inactive: 0"}, {"target": "PIP5K3 (UniProt Q9Y2I7)", "dose-dependent thermal stabilisation call": "inactive: 0"}, {"target": "PPIL1 (UniProt Q9Y3C6)", "dose-dependent thermal stabilisation call": "inactive: 0"}, {"target": "PHF10 (UniProt Q8WUB8)", "dose-dependent thermal stabilisation call": "inactive: 0"}, {"target": "PLOD1 (UniProt Q02809)", "dose-dependent thermal stabilisation call": "inactive: 0"}, {"target": "PKN1 (UniProt Q16512)", "dose-dependent thermal stabilisation call": "inactive: 0"}, {"target": "PIBF1 (UniProt Q8WXW3)", "dose-dependent thermal stabilisation call": "inactive: 0"}, {"target": "PPP2R5E (UniProt Q16537)", "dose-dependent thermal stabilisation call": "inactive: 0"}, {"target": "POM121C (UniProt A8CG34)", "dose-dependent thermal stabilisation call": "inactive: 0"}, {"target": "PICK1 (UniProt Q9NRD5)", "dose-dependent thermal stabilisation call": "inactive: 0"}, {"target": "PIK3R1 (UniProt P27986)", "dose-dependent thermal stabilisation call": "inactive: 0"}, {"target": "PIAS2 (UniProt O75928)", "dose-dependent thermal stabilisation call": "inactive: 0"}, {"target": "PPP3CA (UniProt Q08209)", "dose-dependent thermal stabilisation call": "inactive: 0"}, {"target": "PPT2 (UniProt Q9UMR5)", "dose-dependent thermal stabilisation call": "inactive: 0"}, {"target": "PLCG1 (UniProt P19174)", "dose-dependent thermal stabilisation call": "inactive: 0"}, {"target": "PPP3CB (UniProt P16298)", "dose-dependent thermal stabilisation call": "inactive: 0"}, {"target": "POLR2G (UniProt P62487)", "dose-dependent thermal stabilisation call": "inactive: 0"}, {"target": "PMS1 (UniProt P54277)", "dose-dependent thermal stabilisation call": "inactive: 0"}, {"target": "PPIF (UniProt P30405)", "dose-dependent thermal stabilisation call": "inactive: 0"}, {"target": "PHF23 (UniProt Q9BUL5)", "dose-dependent thermal stabilisation call": "inactive: 0"}, {"target": "PRKACA (UniProt P17612)", "dose-dependent thermal stabilisation call": "inactive: 0"}, {"target": "POLA1 (UniProt P09884)", "dose-dependent thermal stabilisation call": "inactive: 0"}, {"target": "PHKA2 (UniProt P46019)", "dose-dependent thermal stabilisation call": "inactive: 0"}, {"target": "PNPLA8 (UniProt Q9NP80)", "dose-dependent thermal stabilisation call": "inactive: 0"}, {"target": "PPP1R9B (UniProt Q96SB3)", "dose-dependent thermal stabilisation call": "inactive: 0"}, {"target": "PHC2 (UniProt Q8IXK0)", "dose-dependent thermal stabilisation call": "inactive: 0"}, {"target": "PIP4K2B (UniProt P78356)", "dose-dependent thermal stabilisation call": "inactive: 0"}, {"target": "PHPT1 (UniProt Q9NRX4)", "dose-dependent thermal stabilisation call": "inactive: 0"}]}]}
